The assay concerns the target BAPKO_0422^20–201 (untagged) (Borrelia afzelii) (UniProt Q0SNA2). In words: far-Western, overlay or dot blot; affinity ligand-binding immunoblot (ALBI): 10 μg BAPKO_0422^20–201 run on native-PAGE, blotted on PVDF, blocked in 5 % milk; incubated with human fH 73 μg/ml in TBS for 14 h at 4°C; bound fH detected by mouse monoclonal anti-human fH and a fluorescent secondary antibody; control blot incubated with TBS in place of fH; both purified. In general terms: In western blotting, separated proteins are transferred to a membrane and probed.

Protein sequences, listed by entry. Tags and fused reporters are not part of them. Residues count along the entry.
UniProt P08603, residues 19-1231: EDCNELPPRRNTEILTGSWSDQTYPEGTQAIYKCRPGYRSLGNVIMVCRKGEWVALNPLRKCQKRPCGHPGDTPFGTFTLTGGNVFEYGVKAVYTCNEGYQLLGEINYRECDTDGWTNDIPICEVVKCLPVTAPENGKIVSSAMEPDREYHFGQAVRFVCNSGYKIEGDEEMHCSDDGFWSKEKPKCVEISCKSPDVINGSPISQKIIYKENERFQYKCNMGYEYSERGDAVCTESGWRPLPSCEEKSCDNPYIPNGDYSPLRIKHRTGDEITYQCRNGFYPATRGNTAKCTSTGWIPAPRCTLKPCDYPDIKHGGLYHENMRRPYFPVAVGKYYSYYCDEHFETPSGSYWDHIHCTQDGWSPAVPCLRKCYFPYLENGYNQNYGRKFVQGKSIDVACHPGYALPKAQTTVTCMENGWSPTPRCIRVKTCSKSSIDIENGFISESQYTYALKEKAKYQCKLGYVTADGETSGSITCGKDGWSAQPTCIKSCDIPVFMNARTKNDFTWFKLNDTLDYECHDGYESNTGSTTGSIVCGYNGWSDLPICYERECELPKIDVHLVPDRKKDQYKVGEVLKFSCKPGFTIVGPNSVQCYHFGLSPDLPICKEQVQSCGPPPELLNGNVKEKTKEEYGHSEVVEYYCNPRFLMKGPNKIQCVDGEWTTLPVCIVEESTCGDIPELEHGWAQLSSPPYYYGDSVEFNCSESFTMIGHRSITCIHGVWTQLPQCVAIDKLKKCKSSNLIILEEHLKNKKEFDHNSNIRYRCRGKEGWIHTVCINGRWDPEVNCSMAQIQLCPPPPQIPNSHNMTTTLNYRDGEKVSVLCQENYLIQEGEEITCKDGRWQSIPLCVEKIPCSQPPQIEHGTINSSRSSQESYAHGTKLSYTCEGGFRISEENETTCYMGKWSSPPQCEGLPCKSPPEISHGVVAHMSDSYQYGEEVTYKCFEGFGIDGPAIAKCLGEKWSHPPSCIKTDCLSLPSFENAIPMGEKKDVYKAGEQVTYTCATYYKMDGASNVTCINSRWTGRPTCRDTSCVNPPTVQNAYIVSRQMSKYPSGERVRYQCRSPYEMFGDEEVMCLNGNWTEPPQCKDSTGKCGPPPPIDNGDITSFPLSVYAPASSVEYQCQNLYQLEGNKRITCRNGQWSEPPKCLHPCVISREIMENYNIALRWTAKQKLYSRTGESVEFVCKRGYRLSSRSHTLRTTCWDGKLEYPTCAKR

Consider 1 substance from article PMC4613713.

These are yes or no findings as the source states them, for the method shown. Binding calls can cover weak binding; strength is not graded here.

On to “human factor H (from UniProt P08603 19-1231)”, for which the binding result is given as “binds”.
